The source of these data is article doi:10.1101/2025.03.11.642421.

Amino acid sequences for entries named in this document (tags omitted). A change or cut given only in a name is not applied to a line headed by its entry.
UniProt Q92847: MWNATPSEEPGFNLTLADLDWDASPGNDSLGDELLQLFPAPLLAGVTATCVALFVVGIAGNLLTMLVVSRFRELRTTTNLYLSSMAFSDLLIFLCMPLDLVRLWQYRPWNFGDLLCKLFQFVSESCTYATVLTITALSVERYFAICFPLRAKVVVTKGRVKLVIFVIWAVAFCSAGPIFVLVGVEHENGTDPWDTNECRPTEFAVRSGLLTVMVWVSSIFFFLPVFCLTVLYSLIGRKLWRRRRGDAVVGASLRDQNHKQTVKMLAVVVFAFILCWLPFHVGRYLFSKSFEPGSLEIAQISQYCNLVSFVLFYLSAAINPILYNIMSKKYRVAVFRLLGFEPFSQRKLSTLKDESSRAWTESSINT
UniProt P25098: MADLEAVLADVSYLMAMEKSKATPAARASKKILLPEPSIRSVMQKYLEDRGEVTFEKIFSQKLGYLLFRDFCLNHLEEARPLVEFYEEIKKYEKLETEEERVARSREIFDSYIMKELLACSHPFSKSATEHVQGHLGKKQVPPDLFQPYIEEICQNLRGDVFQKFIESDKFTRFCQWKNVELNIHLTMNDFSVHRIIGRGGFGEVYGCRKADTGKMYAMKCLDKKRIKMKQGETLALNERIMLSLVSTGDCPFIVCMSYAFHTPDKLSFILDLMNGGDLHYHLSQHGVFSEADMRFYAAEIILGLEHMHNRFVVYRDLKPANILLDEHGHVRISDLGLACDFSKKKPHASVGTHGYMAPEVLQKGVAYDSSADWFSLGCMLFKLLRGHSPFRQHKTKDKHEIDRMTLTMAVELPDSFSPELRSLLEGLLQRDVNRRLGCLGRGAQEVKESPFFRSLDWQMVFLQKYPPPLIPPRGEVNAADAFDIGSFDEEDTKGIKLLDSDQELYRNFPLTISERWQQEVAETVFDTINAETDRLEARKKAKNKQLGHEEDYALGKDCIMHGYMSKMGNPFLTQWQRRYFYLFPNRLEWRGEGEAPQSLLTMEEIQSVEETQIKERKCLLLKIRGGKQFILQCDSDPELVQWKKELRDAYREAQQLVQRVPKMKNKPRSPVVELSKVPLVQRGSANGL
UniProt P34947: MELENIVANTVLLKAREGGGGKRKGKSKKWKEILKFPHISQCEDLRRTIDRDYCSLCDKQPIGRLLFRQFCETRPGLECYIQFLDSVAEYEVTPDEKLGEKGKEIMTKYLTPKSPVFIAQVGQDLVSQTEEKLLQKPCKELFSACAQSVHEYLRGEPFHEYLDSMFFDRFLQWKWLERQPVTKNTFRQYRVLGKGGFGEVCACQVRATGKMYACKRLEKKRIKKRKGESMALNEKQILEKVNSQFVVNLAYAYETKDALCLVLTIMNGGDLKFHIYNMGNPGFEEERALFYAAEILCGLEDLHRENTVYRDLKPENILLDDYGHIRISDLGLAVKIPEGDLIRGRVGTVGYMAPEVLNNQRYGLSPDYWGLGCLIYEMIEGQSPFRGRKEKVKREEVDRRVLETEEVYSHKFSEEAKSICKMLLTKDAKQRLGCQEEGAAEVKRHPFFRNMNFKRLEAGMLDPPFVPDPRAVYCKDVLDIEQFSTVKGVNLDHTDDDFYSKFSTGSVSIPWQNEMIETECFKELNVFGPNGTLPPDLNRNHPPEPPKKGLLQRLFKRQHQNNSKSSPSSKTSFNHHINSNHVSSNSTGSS
UniProt P43250: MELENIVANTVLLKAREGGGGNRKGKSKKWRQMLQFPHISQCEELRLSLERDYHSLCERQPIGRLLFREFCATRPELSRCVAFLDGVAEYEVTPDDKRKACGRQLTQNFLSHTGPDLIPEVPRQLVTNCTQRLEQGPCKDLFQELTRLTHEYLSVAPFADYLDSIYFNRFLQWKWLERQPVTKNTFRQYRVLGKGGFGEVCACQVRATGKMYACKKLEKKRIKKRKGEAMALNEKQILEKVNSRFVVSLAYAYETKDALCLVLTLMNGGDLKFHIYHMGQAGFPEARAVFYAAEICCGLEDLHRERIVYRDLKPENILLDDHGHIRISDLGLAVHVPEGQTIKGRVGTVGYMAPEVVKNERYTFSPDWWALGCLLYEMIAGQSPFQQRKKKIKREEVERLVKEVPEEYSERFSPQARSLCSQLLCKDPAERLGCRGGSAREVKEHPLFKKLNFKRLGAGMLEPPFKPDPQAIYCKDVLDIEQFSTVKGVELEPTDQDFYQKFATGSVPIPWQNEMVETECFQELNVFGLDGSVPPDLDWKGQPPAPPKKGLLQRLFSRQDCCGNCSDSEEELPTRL
UniProt P49407: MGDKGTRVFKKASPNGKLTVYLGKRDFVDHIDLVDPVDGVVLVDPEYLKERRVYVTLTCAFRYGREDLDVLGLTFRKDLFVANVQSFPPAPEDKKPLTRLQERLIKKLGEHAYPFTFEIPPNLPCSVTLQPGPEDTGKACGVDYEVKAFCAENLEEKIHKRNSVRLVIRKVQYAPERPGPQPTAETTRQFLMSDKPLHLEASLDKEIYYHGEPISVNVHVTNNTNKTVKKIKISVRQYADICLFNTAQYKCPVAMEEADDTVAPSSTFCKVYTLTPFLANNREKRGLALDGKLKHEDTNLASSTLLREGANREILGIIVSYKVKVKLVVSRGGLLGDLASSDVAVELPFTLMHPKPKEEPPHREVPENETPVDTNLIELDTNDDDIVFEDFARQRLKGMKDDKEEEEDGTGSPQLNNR

Read-outs that look alike come from different tables or passages of the source. No constants are given. Whether binding was seen depends on the method and setting. In cells and extracts the contact can be indirect. Some entries that bind do so weakly or less than the wild type.

What all share (assay): FRET or BRET
In general terms: In BRET a luciferase serves as donor, and the signal depends on an acceptor being close.

Assay [1] addresses hGHSR1a^WT-RLuc8 (N-terminally 3xHA-tagged human growth hormone secretagogue receptor 1a, wild type, fused to RLuc8) (human) (UniProt Q92847).
For assay [2] the target is unchanged. The source holds these as a separate data set.
Assay [3] has the same target. This is another data set of the same source.

As to “GRK2^ΔV661-ct (truncated GRK2, YFP-tagged) (from UniProt P25098 1-660) (domain or fragment)”, in assay [1], the binding entry was “binds”. Regarding “GRK5-YFP (G protein-coupled receptor kinase 5) (from UniProt P34947 1-590) (enzyme)”, the binding entry in assay [1] is on record as “binds”. Same read-out and setting: the result for “GRK6-YFP (G protein-coupled receptor kinase 6) (from UniProt P43250 1-576) (enzyme)” reads “binds”. With “N-terminally mVenus-tagged human βarr1 (β-arrestin 1) (from UniProt P49407 1-418)”, the binding entry in assay [2] is on record as “binds”; in assay [3] it was “binds weakly”; in assay [1], “binds”. As for “N-terminally mVenus-tagged human βarr2 (β-arrestin 2) (from UniProt P32121 1-409)”, the binding entry is reported as “binds” in assay [2], “binds weakly” in assay [3] and “binds” in assay [1]. With “YFP-tagged WT-GRK2 (GRK2^WT-YFP; G protein-coupled receptor kinase 2) (from UniProt P25098 1-689) (enzyme)”, the binding result in assay [1] was “binds”.
